Results reported in the supplement of paper PMC10849652.
The other results are listed elsewhere or left out.

Sequences of proteins named here, by UniProt entry; tags and fusion partners are left off. A change or cut given only in a name is not applied to a line headed by its entry.
UniProt Q05397, whole entry, looked up: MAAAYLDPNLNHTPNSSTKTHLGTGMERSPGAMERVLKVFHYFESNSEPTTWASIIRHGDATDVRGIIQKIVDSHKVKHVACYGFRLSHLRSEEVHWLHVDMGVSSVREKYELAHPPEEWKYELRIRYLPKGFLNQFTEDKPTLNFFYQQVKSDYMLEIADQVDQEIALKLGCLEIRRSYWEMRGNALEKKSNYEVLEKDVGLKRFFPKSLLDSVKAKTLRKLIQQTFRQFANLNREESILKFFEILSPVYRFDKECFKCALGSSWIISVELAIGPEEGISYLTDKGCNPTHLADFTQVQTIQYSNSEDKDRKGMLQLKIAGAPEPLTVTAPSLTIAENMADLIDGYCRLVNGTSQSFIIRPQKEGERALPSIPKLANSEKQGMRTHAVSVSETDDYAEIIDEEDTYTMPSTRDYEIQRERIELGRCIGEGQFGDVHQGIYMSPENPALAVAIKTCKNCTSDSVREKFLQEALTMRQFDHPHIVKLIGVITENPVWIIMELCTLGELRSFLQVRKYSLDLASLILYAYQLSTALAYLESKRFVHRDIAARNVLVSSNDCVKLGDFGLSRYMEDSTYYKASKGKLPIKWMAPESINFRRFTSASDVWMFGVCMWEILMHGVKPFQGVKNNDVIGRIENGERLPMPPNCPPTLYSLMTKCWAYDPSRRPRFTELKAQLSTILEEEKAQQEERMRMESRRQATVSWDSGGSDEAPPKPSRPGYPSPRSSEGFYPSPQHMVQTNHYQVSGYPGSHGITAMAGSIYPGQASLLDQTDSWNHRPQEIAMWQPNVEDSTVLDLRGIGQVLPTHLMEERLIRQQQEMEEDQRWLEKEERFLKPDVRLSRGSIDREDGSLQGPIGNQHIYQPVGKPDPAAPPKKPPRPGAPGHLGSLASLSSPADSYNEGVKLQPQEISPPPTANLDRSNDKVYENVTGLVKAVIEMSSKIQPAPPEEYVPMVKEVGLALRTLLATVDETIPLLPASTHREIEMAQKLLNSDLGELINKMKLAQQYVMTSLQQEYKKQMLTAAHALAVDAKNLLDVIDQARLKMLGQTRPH
UniProt Q9ULL5: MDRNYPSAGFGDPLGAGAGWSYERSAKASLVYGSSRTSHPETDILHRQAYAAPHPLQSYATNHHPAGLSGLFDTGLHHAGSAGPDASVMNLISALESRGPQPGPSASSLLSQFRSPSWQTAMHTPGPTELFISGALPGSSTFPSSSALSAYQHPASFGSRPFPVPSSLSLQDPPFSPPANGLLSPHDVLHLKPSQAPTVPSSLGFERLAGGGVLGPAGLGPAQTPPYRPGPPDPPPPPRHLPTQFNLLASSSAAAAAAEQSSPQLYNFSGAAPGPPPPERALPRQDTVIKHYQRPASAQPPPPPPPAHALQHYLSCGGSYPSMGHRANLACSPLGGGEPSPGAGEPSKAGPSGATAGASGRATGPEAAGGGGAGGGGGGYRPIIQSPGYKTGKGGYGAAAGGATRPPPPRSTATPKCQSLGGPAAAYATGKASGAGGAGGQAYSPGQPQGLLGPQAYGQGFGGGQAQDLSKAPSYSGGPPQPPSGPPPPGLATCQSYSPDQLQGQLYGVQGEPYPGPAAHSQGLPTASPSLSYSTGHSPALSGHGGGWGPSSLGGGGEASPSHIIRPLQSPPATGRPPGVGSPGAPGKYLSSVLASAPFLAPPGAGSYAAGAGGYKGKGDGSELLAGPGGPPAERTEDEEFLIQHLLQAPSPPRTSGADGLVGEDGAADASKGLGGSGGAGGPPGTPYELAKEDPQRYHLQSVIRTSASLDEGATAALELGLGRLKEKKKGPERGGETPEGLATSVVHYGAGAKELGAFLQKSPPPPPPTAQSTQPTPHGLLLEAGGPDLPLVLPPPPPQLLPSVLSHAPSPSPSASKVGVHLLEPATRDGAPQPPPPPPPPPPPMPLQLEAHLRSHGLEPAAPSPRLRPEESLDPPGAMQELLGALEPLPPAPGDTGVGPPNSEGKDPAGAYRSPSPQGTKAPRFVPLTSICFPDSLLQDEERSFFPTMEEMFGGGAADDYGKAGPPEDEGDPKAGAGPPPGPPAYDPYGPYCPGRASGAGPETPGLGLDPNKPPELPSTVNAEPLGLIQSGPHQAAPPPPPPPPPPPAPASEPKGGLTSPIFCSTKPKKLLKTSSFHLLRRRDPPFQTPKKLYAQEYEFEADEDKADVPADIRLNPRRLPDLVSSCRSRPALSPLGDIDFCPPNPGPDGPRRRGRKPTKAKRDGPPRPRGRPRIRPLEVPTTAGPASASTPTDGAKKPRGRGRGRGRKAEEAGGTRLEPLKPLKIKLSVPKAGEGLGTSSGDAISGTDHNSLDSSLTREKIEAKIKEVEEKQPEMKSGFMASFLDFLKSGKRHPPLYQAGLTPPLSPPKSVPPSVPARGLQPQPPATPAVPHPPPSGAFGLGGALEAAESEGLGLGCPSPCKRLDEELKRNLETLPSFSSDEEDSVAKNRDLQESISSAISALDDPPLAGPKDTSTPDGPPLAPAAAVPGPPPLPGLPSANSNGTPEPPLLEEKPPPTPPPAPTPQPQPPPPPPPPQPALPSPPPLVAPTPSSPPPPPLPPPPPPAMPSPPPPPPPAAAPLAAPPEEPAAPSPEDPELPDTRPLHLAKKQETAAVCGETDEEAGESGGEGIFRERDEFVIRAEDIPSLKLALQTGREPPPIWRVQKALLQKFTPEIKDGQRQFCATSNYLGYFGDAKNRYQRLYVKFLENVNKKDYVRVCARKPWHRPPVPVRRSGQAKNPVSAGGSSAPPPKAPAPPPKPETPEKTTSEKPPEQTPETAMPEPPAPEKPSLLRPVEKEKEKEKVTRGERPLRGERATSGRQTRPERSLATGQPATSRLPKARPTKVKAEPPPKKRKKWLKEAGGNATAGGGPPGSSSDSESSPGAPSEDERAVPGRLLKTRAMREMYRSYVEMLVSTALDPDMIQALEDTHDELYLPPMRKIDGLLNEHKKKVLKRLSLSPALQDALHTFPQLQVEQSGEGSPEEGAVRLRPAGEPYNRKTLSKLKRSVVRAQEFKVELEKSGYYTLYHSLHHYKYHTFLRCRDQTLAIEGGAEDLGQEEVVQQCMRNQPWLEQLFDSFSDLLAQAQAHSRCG
UniProt P23467: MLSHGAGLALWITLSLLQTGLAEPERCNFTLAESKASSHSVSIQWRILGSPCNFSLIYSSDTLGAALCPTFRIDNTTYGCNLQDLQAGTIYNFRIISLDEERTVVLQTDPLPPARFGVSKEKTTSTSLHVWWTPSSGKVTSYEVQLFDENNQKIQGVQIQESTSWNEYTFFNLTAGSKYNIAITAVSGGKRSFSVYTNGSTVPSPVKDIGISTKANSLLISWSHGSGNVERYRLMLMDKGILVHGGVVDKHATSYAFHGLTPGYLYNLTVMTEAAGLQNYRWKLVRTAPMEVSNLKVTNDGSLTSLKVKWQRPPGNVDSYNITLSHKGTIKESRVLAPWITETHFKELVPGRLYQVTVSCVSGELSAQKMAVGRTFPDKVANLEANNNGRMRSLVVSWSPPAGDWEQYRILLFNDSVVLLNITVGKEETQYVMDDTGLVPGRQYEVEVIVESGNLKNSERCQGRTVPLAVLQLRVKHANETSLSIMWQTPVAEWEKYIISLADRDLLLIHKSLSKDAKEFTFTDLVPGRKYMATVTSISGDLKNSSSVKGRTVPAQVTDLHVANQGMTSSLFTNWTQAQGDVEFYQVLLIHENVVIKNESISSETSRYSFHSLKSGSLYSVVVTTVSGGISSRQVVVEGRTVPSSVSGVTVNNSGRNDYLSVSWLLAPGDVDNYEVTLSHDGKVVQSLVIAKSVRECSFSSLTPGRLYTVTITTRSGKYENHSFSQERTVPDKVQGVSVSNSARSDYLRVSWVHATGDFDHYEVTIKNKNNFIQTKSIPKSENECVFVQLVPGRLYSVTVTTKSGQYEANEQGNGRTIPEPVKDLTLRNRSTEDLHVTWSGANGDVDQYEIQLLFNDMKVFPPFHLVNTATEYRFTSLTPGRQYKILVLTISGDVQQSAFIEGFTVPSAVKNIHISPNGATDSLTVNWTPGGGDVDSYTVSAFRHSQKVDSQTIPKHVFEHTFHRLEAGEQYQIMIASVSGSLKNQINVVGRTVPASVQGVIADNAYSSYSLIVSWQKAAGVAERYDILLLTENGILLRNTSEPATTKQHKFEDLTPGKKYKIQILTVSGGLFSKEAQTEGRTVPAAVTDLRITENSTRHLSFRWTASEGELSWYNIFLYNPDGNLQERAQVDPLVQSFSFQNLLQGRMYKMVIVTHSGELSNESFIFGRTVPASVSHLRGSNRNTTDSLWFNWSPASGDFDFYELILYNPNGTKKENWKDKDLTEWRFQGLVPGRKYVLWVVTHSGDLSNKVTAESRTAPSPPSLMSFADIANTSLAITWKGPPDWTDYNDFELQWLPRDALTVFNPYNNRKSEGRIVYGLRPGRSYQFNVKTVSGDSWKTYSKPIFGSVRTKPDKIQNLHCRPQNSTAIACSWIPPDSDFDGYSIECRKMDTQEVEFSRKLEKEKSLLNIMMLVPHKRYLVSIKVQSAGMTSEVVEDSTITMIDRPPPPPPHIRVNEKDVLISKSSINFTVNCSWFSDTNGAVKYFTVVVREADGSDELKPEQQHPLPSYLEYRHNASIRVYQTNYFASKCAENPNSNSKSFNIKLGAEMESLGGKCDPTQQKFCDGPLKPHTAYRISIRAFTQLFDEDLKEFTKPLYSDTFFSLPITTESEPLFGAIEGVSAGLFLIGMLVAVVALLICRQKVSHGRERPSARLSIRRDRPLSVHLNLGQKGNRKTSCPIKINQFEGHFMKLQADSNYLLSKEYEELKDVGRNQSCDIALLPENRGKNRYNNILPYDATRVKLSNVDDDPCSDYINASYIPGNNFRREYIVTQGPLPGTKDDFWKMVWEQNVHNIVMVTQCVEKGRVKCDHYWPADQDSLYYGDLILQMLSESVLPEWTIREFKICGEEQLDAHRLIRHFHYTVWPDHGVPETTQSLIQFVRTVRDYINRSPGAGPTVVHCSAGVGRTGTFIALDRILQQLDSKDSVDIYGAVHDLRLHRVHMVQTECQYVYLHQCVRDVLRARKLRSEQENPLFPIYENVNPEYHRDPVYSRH
UniProt P60484: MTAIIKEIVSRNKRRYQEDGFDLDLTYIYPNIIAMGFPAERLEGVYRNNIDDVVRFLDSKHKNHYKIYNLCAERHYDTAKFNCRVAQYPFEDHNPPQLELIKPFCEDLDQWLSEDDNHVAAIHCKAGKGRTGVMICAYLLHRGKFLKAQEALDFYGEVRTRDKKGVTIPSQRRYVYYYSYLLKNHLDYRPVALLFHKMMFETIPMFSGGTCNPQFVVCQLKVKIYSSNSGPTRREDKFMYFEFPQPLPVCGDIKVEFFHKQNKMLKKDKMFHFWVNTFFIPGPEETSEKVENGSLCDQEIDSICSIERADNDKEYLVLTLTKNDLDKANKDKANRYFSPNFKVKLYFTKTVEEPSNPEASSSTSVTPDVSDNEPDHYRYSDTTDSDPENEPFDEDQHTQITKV
UniProt Q9UHX1: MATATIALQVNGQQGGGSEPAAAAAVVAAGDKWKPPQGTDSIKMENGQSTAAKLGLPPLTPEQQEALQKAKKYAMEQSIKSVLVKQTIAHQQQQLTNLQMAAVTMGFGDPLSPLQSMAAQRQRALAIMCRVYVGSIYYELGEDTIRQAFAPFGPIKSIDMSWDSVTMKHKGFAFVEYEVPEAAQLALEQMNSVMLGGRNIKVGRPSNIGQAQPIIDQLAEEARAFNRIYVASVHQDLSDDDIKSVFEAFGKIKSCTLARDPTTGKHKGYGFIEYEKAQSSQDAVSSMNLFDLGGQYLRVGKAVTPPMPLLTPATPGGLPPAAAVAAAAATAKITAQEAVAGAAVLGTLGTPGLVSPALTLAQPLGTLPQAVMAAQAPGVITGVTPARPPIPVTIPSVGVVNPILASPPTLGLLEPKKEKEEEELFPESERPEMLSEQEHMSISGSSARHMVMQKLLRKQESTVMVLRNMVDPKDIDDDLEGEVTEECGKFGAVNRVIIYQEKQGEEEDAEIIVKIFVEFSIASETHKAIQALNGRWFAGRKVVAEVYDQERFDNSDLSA
UniProt Q16378: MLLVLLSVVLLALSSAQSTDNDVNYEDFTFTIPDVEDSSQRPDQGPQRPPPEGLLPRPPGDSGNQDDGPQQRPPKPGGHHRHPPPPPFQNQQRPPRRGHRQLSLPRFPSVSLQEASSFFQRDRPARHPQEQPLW
UniProt Q86YD1: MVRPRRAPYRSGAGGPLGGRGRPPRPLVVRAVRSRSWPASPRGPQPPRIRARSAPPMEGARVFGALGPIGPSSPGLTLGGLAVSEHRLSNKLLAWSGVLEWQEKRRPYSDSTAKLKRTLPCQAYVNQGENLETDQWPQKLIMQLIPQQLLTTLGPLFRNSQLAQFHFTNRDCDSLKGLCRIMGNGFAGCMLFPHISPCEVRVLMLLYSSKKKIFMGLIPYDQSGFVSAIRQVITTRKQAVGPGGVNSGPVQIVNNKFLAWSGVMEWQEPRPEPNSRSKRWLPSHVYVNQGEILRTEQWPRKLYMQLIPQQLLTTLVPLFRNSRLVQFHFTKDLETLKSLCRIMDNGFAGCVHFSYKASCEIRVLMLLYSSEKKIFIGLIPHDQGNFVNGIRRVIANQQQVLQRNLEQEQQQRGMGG

These targets were tested with C1=CC=C(C=C1)[C@H](COC2=CC3=C(C=C2)NC(=O)N3)NC(=O)C4=CC=CN(C4=O)CC5=CC(=C(C=C5)F)F (assay: log2 fold change, soluble protein after heating vs DMSO (PISA); higher = thermal stabilisation; K562 lysate, 10 uM; active = over 0.2 and 3.5 SD of the protein, either way, in both replicates (recomputed)).
How it was run: (§1)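 The values are log-two fold changes in thermal stability compared with solvent controls and come from duplicates. They were obtained by TMTpro 16plex LC-MS/MS, with channel sums equalised, on the supernatant after 21,000xg for 90 min. That supernatant came from crude K562 extract at 1 mg/mL protein treated with 10 μM compound for 30 min, heated for 3 min across 48°C-58°C, pooled and brought to 0.5% NP-40 at 4°C.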
For PSMD6 (UniProt Q15008), the log2 fold change was inactive: 0.067.
For PTK2 isoform 2 (UniProt Q05397), the log2 fold change was inactive: 0.07.
PRR12 (UniProt Q9ULL5) was tested, and the log2 fold change was inactive: -0.027.
For PTPRB isoform 3 (UniProt P23467), the log2 fold change was inactive: -0.39.
With PTEN isoform 2 (UniProt P60484) the log2 fold change was inactive: 0.022.
PSIP1 (UniProt V9GYT7) was tested, and the log2 fold change was inactive: 0.156.
PSMD4 (UniProt Q5VWC4) was tested, and the log2 fold change was inactive: 0.005.
PRXL2A (UniProt Q9BRX8) was tested, and the log2 fold change was inactive: -0.063.
With PSMB8 (UniProt P28062) the log2 fold change was inactive: -0.025.
For PSMA7 (UniProt H0Y586), the log2 fold change was inactive: -0.036.
With PSEN2 (UniProt P49810) the log2 fold change was inactive: 0.024.
For PUF60 isoform 2 (UniProt Q9UHX1), the log2 fold change was inactive: 0.091.
For PRSS50 (UniProt Q9UI38), the log2 fold change was inactive: 0.034.

Each target was assayed with CC1=C(SC2=C1C(=N[C@H](C3=NN=C(N32)C)CC(=O)N)C4=CC=C(C=C4)Cl)C in the same assay as above.
How it was run: as §1
PSMD6 (UniProt Q15008) was tested, and the log2 fold change was inactive: 0.049.
With PTK2 isoform 2 (UniProt Q05397) the log2 fold change was inactive: 0.081.
In the case of PRR12 (UniProt Q9ULL5), the log2 fold change is reported as inactive: 0.126.
With PTPRB isoform 3 (UniProt P23467) the log2 fold change was inactive: 0.006.
In the case of PTEN isoform 2 (UniProt P60484), the log2 fold change is reported as inactive: 0.044.
In the case of PSIP1 (UniProt V9GYT7), the log2 fold change is reported as inactive: -0.192.
With PSMD4 (UniProt Q5VWC4) the log2 fold change was inactive: 0.013.
PRXL2A (UniProt Q9BRX8) was tested, and the log2 fold change was inactive: 0.245.
For PSMB8 (UniProt P28062), the log2 fold change was inactive: -0.066.
In the case of PSMA7 (UniProt H0Y586), the log2 fold change is reported as inactive: 0.099.
In the case of PSEN2 (UniProt P49810), the log2 fold change is reported as inactive: -0.003.
With PUF60 isoform 2 (UniProt Q9UHX1) the log2 fold change was inactive: 0.109.
With PRSS50 (UniProt Q9UI38) the log2 fold change was inactive: -0.029.

These targets were tested with CC1=C2C(=CC=C1)N=C(N(C2=O)C3=CC=CC=C3C)CN4C=NC5=C(N=CN=C54)N in the same assay as above.
How it was run: as §1
PTMS (UniProt F5GXR3) was tested, and the log2 fold change was inactive: -0.279.
In the case of PRR4 (UniProt Q16378), the log2 fold change is reported as inactive: -0.076.
For PRR3 (UniProt P79522), the log2 fold change was inactive: 0.046.
In the case of PTPA (UniProt Q5T948), the log2 fold change is reported as inactive: -0.033.
PTCD2 (UniProt Q8WV60) was tested, and the log2 fold change was inactive: -0.016.
With PSMA3 (UniProt H0YJ03) the log2 fold change was inactive: 0.171.
With PTRH1 (UniProt Q86Y79) the log2 fold change was inactive: -0.233.
PSMD4 (UniProt Q5VWC4) was tested, and the log2 fold change was inactive: 0.011.
With PTP4A3 (UniProt O75365) the log2 fold change was inactive: -0.212.
For PSMC3 (UniProt E9PLG2), the log2 fold change was inactive: 0.011.
PTPRF (UniProt P10586) was tested, and the log2 fold change was inactive: 0.243.
PTOV1 (UniProt Q86YD1) was tested, and the log2 fold change was inactive: -0.126.
In the case of PSMF1 (UniProt Q5QPM7), the log2 fold change is reported as inactive: -0.021.
With PUF60 isoform 2 (UniProt Q9UHX1) the log2 fold change was inactive: 0.035.

These targets were tested with Cc1sc2c(c1C)C(c1ccc(Cl)cc1)=N[C@@H](CC(=O)OC(C)(C)C)c1nnc(C)n1-2 in the same assay as above.
How it was run: as §1
In the case of PTK2 isoform 2 (UniProt Q05397), the log2 fold change is reported as inactive: -0.324.
With PTCD2 (UniProt Q8WV60) the log2 fold change was inactive: 0.06.
For PTPRB isoform 3 (UniProt P23467), the log2 fold change was inactive: 0.149.
PSTK (UniProt H7BYY4) was tested, and the log2 fold change was inactive: 0.039.
With PSMA3 (UniProt H0YJ03) the log2 fold change was inactive: 0.034.
With PTEN isoform 2 (UniProt P60484) the log2 fold change was inactive: -0.021.
With PRSS8 (UniProt Q16651) the log2 fold change was inactive: 0.017.
With PTP4A3 (UniProt O75365) the log2 fold change was inactive: 0.004.
With PRXL2A (UniProt Q9BRX8) the log2 fold change was inactive: 0.047.
For PSMB8 (UniProt P28062), the log2 fold change was inactive: -0.142.
For PWWP2B (UniProt Q6NUJ5), the log2 fold change was inactive: 0.074.
For PSEN2 (UniProt P49810), the log2 fold change was inactive: -0.107.
With PTOV1 (UniProt Q86YD1) the log2 fold change was inactive: -0.28.
PSMA7 isoform 2 (UniProt O14818) was tested, and the log2 fold change was inactive: -0.085.
For PRSS2 (UniProt P07478), the log2 fold change was inactive: 0.002.
For PRSS50 (UniProt Q9UI38), the log2 fold change was inactive: 0.1.

These targets were tested with c1ccc([C@@H]2C[C@H]2NC2CCNCC2)cc1 in the same assay as above.
How it was run: as §1
PWWP2A (UniProt Q96N64) was tested, and the log2 fold change was inactive: 0.061.
In the case of PSMD6 (UniProt Q15008), the log2 fold change is reported as inactive: -0.363.
With PRR4 (UniProt Q16378) the log2 fold change was inactive: -0.269.
For PRR12 (UniProt Q9ULL5), the log2 fold change was inactive: 0.3.
In the case of PSTK (UniProt H7BYY4), the log2 fold change is reported as inactive: -0.055.
PTEN isoform 2 (UniProt P60484) was tested, and the log2 fold change was inactive: -0.237.
With PSIP1 (UniProt V9GYT7) the log2 fold change was inactive: 0.
PRSS8 (UniProt Q16651) was tested, and the log2 fold change was inactive: 0.012.
With PTRH1 (UniProt Q86Y79) the log2 fold change was inactive: 0.193.
In the case of PSMD4 (UniProt Q5VWC4), the log2 fold change is reported as inactive: -0.122.
For PTPN11 (UniProt Q06124), the log2 fold change was inactive: -0.004.
PRXL2A (UniProt Q9BRX8) was tested, and the log2 fold change was inactive: -0.137.
With PSMB8 (UniProt P28062) the log2 fold change was inactive: -0.039.
For PTGDR2 (UniProt Q9Y5Y4), the log2 fold change was inactive: 0.082.
PSMA7 (UniProt H0Y586) was tested, and the log2 fold change was inactive: 0.152.
With PTPRF (UniProt P10586) the log2 fold change was inactive: 0.008.
For PWWP2B (UniProt Q6NUJ5), the log2 fold change was inactive: 0.035.
PSEN2 (UniProt P49810) was tested, and the log2 fold change was inactive: -0.013.
In the case of PTOV1 (UniProt Q86YD1), the log2 fold change is reported as inactive: 0.074.
For PSMF1 (UniProt Q5QPM7), the log2 fold change was inactive: 0.085.
For PUM2 (UniProt C9JW01), the log2 fold change was inactive: -0.112.
With PUF60 isoform 2 (UniProt Q9UHX1) the log2 fold change was inactive: 0.238.
PRSS2 (UniProt P07478) was tested, and the log2 fold change was inactive: -0.019.
In the case of PRSS50 (UniProt Q9UI38), the log2 fold change is reported as inactive: 0.129.
